Measured values: the supplement of paper PMC10849652
The list shows a part of the results.

Protein sequences, listed by entry. Tags and fused reporters are not part of them. Lines headed by an entry give the natural chain unless they say otherwise; changes in a name come on top.
UniProt Q9BYG5: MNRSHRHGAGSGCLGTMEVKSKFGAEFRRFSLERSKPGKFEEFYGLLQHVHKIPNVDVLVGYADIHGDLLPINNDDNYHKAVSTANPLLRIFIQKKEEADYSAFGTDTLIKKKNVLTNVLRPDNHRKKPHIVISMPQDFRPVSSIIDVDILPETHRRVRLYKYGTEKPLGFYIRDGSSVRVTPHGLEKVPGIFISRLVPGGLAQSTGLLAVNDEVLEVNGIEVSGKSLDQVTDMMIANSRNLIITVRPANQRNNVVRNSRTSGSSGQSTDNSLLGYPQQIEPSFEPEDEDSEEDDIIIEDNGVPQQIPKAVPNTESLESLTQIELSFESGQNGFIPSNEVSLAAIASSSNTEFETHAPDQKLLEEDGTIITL
UniProt Q9BXB4: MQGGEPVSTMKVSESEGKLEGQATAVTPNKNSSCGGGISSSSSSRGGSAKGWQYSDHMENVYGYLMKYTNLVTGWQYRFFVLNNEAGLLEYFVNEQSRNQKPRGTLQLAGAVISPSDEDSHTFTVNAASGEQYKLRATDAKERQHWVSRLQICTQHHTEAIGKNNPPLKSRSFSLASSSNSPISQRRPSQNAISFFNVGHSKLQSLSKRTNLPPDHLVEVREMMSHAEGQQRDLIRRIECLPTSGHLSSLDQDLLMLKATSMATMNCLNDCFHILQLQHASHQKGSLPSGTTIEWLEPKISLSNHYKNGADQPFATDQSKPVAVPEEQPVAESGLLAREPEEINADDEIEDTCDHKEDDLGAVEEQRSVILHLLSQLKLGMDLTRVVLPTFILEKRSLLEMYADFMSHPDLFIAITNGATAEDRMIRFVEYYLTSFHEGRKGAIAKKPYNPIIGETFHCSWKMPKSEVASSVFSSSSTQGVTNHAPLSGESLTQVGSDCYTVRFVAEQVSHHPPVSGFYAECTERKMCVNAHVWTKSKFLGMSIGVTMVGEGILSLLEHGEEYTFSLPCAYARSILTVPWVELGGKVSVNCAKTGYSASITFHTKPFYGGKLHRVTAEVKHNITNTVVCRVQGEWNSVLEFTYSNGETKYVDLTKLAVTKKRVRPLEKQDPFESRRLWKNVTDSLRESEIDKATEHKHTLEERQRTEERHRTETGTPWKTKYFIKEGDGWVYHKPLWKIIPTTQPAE
UniProt P43034: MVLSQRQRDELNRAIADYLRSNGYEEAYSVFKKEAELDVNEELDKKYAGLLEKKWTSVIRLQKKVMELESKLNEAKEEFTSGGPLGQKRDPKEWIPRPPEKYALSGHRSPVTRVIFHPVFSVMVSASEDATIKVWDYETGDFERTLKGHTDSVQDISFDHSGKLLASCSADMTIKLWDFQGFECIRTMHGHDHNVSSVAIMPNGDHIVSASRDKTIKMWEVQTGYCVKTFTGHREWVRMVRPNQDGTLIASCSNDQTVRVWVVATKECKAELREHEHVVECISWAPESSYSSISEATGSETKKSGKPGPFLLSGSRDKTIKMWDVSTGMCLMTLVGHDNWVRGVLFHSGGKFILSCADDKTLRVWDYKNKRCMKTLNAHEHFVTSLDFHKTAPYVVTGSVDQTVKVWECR
UniProt O75781: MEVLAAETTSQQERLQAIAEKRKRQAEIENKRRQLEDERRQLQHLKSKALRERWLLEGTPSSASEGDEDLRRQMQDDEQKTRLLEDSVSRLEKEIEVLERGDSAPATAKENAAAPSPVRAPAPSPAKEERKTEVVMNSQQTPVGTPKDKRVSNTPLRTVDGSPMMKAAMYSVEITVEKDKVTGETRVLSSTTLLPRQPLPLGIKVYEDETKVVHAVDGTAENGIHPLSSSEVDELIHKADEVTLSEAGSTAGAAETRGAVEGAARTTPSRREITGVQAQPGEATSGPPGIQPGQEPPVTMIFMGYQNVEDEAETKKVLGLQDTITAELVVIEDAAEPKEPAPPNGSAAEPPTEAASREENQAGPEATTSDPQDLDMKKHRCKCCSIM
UniProt Q86WC4: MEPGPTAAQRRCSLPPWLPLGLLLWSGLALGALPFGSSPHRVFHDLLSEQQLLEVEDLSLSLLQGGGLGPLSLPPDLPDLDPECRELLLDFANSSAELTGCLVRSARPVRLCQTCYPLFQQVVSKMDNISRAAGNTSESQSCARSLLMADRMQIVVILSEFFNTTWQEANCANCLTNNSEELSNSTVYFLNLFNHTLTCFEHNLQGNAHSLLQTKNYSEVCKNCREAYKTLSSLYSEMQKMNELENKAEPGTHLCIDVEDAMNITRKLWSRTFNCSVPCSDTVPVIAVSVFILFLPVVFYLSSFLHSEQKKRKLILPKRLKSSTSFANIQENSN
UniProt Q9NRP0: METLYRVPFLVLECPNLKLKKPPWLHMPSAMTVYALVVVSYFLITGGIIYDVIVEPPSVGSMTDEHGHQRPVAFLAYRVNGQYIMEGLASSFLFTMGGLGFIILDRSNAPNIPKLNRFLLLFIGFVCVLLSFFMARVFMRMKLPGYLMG
UniProt O96013: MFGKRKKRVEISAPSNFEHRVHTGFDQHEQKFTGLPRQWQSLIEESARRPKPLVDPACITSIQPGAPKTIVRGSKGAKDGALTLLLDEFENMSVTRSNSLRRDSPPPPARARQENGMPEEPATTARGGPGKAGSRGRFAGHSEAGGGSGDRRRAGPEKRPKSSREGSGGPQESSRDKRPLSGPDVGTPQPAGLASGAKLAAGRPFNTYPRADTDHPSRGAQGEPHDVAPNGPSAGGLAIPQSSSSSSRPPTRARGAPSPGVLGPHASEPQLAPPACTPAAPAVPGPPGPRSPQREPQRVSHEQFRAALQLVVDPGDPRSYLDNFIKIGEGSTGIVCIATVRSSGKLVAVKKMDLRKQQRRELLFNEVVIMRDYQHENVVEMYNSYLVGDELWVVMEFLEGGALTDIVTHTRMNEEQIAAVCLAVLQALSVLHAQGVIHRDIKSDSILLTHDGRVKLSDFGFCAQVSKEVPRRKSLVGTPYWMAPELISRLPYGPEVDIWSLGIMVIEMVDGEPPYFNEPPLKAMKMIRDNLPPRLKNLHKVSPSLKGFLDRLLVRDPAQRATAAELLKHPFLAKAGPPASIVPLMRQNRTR
UniProt Q6VY07, whole entry, looked up: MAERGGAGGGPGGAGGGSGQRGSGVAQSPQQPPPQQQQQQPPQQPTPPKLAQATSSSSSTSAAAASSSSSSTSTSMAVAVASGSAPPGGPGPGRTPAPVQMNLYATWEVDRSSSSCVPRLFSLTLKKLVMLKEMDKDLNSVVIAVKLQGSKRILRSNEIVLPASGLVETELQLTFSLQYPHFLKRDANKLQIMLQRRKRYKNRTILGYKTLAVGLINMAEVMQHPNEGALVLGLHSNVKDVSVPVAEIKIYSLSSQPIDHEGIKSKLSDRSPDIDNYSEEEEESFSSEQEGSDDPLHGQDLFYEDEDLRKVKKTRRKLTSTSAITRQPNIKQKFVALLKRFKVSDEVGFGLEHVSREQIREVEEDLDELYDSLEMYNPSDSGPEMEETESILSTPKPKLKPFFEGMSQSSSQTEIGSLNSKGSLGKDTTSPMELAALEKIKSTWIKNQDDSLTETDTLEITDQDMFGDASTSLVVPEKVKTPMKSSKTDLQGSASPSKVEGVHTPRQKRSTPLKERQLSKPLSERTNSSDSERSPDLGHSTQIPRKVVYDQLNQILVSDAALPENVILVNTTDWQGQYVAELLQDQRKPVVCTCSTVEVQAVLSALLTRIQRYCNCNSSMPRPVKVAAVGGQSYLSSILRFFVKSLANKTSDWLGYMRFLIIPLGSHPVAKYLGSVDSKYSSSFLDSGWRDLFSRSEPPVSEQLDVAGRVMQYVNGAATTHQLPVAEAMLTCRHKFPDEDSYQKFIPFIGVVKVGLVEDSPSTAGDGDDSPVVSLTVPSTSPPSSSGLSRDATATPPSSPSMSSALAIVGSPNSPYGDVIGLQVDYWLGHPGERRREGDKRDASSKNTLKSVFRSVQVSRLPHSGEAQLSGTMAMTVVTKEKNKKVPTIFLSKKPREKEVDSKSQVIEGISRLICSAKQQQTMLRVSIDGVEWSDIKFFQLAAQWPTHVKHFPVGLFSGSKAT
UniProt Q8N573: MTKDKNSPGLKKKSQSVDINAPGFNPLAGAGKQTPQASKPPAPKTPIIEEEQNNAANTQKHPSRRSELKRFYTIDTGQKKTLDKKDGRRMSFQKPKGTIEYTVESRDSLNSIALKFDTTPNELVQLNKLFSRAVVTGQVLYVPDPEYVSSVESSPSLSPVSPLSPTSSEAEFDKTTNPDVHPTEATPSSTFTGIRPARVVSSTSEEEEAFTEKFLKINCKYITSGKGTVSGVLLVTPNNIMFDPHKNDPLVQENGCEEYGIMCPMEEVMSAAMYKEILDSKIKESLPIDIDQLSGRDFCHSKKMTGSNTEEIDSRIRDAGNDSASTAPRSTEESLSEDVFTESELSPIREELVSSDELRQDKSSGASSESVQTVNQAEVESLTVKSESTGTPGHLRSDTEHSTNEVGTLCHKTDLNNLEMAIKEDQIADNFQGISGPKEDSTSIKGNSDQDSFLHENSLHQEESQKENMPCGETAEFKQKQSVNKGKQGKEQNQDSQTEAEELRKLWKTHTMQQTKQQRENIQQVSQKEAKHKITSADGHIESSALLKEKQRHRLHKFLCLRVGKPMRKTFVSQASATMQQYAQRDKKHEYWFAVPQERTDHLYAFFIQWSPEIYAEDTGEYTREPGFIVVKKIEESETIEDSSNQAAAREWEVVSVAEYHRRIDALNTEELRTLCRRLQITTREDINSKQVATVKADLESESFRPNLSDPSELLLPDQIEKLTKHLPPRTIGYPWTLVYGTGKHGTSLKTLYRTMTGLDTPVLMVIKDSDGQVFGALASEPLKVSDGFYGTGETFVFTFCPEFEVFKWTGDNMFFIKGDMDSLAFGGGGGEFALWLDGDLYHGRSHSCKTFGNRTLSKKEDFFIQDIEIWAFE
UniProt Q9UBD5: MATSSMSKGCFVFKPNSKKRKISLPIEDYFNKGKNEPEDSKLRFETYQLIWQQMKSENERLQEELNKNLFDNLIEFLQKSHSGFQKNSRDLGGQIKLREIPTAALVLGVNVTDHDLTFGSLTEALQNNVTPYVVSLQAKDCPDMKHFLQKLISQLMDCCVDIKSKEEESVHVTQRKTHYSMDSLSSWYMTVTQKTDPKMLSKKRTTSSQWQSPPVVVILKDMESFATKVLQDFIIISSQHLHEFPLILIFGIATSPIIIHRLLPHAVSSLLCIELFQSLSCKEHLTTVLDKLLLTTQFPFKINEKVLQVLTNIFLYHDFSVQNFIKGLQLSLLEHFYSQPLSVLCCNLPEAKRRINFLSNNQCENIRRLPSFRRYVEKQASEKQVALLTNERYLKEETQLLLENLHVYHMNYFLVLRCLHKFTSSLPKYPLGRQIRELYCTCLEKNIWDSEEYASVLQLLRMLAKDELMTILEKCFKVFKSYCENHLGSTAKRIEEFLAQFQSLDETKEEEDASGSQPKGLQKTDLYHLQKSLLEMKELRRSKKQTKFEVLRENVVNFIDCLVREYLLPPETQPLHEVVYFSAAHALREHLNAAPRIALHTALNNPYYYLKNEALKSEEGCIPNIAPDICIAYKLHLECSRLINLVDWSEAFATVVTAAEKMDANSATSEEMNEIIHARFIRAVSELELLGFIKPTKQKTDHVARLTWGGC
UniProt P51003: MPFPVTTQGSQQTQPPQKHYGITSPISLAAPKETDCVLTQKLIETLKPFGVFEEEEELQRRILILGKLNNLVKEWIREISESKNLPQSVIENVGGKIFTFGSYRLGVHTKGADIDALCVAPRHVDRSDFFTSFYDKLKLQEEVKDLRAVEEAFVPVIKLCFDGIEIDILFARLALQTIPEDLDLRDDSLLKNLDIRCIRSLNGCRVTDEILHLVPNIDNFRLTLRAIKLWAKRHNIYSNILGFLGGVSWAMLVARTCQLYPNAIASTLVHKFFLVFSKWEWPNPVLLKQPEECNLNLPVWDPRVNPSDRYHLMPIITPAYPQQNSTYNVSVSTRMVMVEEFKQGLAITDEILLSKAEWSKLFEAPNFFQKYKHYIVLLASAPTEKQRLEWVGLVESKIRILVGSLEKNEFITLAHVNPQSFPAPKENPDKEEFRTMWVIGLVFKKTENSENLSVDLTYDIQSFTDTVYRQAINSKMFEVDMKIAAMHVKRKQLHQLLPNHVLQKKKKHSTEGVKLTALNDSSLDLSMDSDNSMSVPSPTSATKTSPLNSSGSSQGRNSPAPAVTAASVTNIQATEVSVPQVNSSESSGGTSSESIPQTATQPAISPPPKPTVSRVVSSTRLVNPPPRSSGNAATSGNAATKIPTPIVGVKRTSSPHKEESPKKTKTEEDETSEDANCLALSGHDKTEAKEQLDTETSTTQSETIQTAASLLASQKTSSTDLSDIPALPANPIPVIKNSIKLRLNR

Assays:
Test in all cases: log2 fold change, soluble protein after heating vs DMSO (PISA); higher = thermal stabilisation; K562 lysate, 10 uM; active = over 0.2 and 3.5 SD of the protein, either way, in both replicates (recomputed)
[1] = compound: CS(=O)(=O)CCNCc1ccc(-c2ccc3ncnc(Nc4ccc(OCc5cccc(F)c5)c(Cl)c4)c3c2)o1 [lapatinib]
In short: (§1)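 A 30 min treatment with 10 μM compound was applied to crude K562 extract at 1 mg/mL protein in PBS pH 7.4 with 1 mM MgCl2. Heating for 3 min spanned 48°C-58°C, after which aliquots were pooled, adjusted to 0.5% NP-40 at 4°C and spun at 21,000xg for 90 min. TMTpro 16plex LC-MS/MS of the supernatant, with channel sums equalised, gave values recorded as log-two fold change in thermal stability against solvent controls, from duplicates.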

[2] = compound: CS(=O)(=O)N1CCN(Cc2cc3nc(-c4cccc5[nH]ncc45)nc(N4CCOCC4)c3s2)CC1 [pictilisib]
In short: as §1

[3] = compound: C[C@@H](Oc1cc(-c2cnn(C3CCNCC3)c2)cnc1N)c1c(Cl)ccc(F)c1Cl [crizotinib]
In short: as §1

[4] = compound: C[C@H](C1=CC=C(C=C1)C(=O)NC2=C3C=CNC3=NC=C2)N
In short: as §1

[5] = compound: C[C@H](Nc1ncnc2nc[nH]c12)c1cc2cccc(Cl)c2c(=O)n1-c1ccccc1 [duvelisib]
In short: as §1

[6] = compound: Cc1cc(Nc2cc(CN3CCOCC3)c3nc(C)c(Cc4ccc(Cl)cc4F)n3n2)n[nH]1 [gandotinib]
In short: as §1

[7] = compound: Cc1cc(Nc2cc(N3CCN(C)CC3)nc(Sc3ccc(NC(=O)C4CC4)cc3)n2)n[nH]1 [tozasertib]
In short: as §1

[8] = compound: Cc1ccc(-n2nc(C(C)(C)C)cc2NC(=O)Nc2ccc(OCCN3CCOCC3)c3ccccc23)cc1 [doramapimod]
In short: as §1

[9] = compound: Cc1ccc(NC(=O)c2ccc(CN3CC[C@H](N(C)C)C3)c(C(F)(F)F)c2)cc1Nc1nccc(-c2cncnc2)n1 [bafetinib]
In short: as §1

[10] = compound: Cc1cccc(CC(=O)N2CCc3c2ccc(-c2cn(C)c4ncnc(N)c24)c3F)n1
In short: as §1

[11] = compound: Cc1cn(-c2cc(NC(=O)c3ccc(C)c(Nc4nccc(-c5cccnc5)n4)c3)cc(C(F)(F)F)c2)cn1 [nilotinib]
In short: as §1

[12] = compound: Cc1nc(Nc2n[nH]c3c2CN(C(=O)N[C@H](CN(C)C)c2ccccc2)C3(C)C)c2sccc2n1
In short: as §1

[13] = compound: Cc1nc(Nc2ncc(C(=O)Nc3c(C)cccc3Cl)s2)cc(N2CCN(CCO)CC2)n1 [dasatinib]
In short: as §1

[14] = compound: Cc1ncc(-c2ccnc(Nc3ccc(S(C)(=O)=O)cc3)n2)n1C(C)C
In short: as §1

[15] = compound: Cn1cc(-c2ccc3c(c2)CCN3C(=O)Cc2cccc(C(F)(F)F)c2)c2c(N)ncnc21
In short: as §1

[16] = compound: Cn1cc(CNCC2CCN(c3ncc(C(=O)NO)cn3)CC2)c2ccccc21 [quisinostat]
In short: as §1

[17] = compound: Cn1cncc1[C@@](N)(c1ccc(Cl)cc1)c1ccc2c(c1)c(-c1cccc(Cl)c1)cc(=O)n2C [tipifarnib]
In short: as §1

[18] = compound: NC(=O)Nc1cc(-c2cccc(F)c2)sc1C(=O)N[C@H]1CCCNC1
In short: as §1

[19] = compound: NC(=O)c1cnc(N[C@@H]2CCCC[C@@H]2N)nc1Nc1cccc(-n2nccn2)c1
In short: as §1

[20] = compound: NC1(c2ccc(-c3nc4ccn5c(=O)[nH]nc5c4cc3-c3ccccc3)cc2)CCC1
In short: as §1

Target | log2 fold change [1] | log2 fold change [2] | log2 fold change [3] | log2 fold change [4] | log2 fold change [5] | log2 fold change [6] | log2 fold change [7] | log2 fold change [8] | log2 fold change [9] | log2 fold change [10] | log2 fold change [11] | log2 fold change [12] | log2 fold change [13] | log2 fold change [14] | log2 fold change [15] | log2 fold change [16] | log2 fold change [17] | log2 fold change [18] | log2 fold change [19] | log2 fold change [20]
PARD6B (UniProt Q9BYG5) | inactive: 0.036 | inactive: -0.013 | inactive: -0.015 | inactive: -0.013 | inactive: 0.022 | inactive: 0.033 | inactive: -0.017 | inactive: 0.035 | inactive: -0.063 | inactive: 0.028 | inactive: 0.042 | inactive: 0.11 | inactive: 0.019 | inactive: -0.011 | inactive: 0.042 | inactive: -0.03 | inactive: -0.043 | inactive: -0.001 | inactive: 0.018 | inactive: 0.035
P3H1 (UniProt Q32P28) | inactive: -0.007 | inactive: -0.027 | inactive: 0 | inactive: 0.005 | inactive: -0.017 | inactive: -0.006 | inactive: 0.021 | inactive: -0.019 | inactive: -0.006 | inactive: 0.024 | inactive: 0.016 | inactive: 0.006 | inactive: 0.013 | inactive: -0.001 | inactive: -0.005 | inactive: 0.029 | inactive: -0.028 | inactive: 0.002 | inactive: -0.006 | inactive: -0.001
OSBPL11 (UniProt Q9BXB4) | inactive: -0.021 | inactive: -0.094 | inactive: 0.042 | inactive: 0.008 | inactive: 0.007 | inactive: -0.068 | inactive: -0.077 | inactive: -0.079 | inactive: 0.039 | inactive: 0.004 | inactive: -0.027 | inactive: 0.058 | inactive: -0.181 | inactive: 0.008 | inactive: 0.004 | inactive: -0.023 | inactive: 0.128 | inactive: 0.02 | inactive: -0.019 | inactive: -0.004
OGT (UniProt O15294) | inactive: -0.006 | inactive: -0.038 | inactive: -0.038 | inactive: -0.016 | inactive: -0.016 | inactive: -0.086 | inactive: 0.016 | inactive: 0.009 | inactive: -0.011 | inactive: -0.029 | inactive: 0.018 | inactive: 0.01 | inactive: -0.027 | inactive: -0.002 | inactive: 0.041 | inactive: -0.067 | inactive: -0.012 | inactive: 0.026 | inactive: 0.009 | inactive: -0.023
PAFAH1B1 (UniProt P43034) | inactive: 0.006 | inactive: -0.014 | inactive: 0.067 | inactive: 0.072 | inactive: 0.005 | inactive: -0.055 | inactive: -0.002 | inactive: 0.005 | inactive: 0.011 | inactive: -0.103 | inactive: 0.005 | inactive: 0.033 | inactive: 0.062 | inactive: 0.009 | inactive: -0.004 | inactive: 0.079 | inactive: 0.002 | inactive: -0.011 | inactive: -0.021 | inactive: 0.003
OSBP (UniProt P22059) | inactive: -0.101 | inactive: -0.046 | inactive: 0.007 | inactive: 0 | inactive: 0.037 | inactive: -0.072 | inactive: -0.015 | inactive: -0.028 | inactive: -0.093 | inactive: 0.03 | inactive: -0.073 | inactive: 0.005 | active: -0.221 | inactive: -0.015 | inactive: -0.011 | inactive: 0 | inactive: 0.042 | inactive: 0.012 | inactive: 0.031 | inactive: 0.04
PALM (UniProt O75781) | inactive: -0.027 | inactive: -0.064 | inactive: 0.025 | inactive: -0.063 | inactive: 0.023 | inactive: 0.066 | inactive: 0.007 | inactive: -0.023 | inactive: 0.003 | inactive: 0.026 | inactive: -0.012 | inactive: 0.022 | inactive: 0.005 | inactive: -0.09 | inactive: 0.042 | inactive: -0.04 | inactive: -0.058 | inactive: -0.03 | inactive: 0.008 | inactive: 0.035
OSTM1 (UniProt Q86WC4) | inactive: -0.016 | inactive: -0.083 | inactive: 0.056 | inactive: 0.015 | inactive: 0.007 | inactive: 0.082 | inactive: 0.033 | inactive: 0.003 | inactive: -0.01 | inactive: 0.041 | inactive: -0.029 | inactive: 0.001 | inactive: 0.055 | inactive: -0.027 | inactive: 0.025 | inactive: 0.083 | inactive: 0.033 | inactive: -0.017 | inactive: -0.002 | inactive: -0.005
OSTC (UniProt Q9NRP0) | inactive: 0.055 | inactive: -0.029 | inactive: -0.199 | inactive: -0.111 | inactive: -0.106 | inactive: -0.015 | inactive: 0.113 | inactive: 0.068 | inactive: -0.111 | inactive: 0.223 | inactive: 0.046 | inactive: -0.108 | inactive: 0 | inactive: 0.07 | inactive: -0.127 | inactive: -0.162 | inactive: -0.083 | inactive: 0.017 | inactive: 0.014 | inactive: 0.004
PAK4 (UniProt O96013) | inactive: -0.147 | inactive: 0.139 | inactive: 0.037 | inactive: 0.163 | inactive: 0.05 | active: 0.709 | inactive: 0.18 | inactive: -0.236 | inactive: -0.011 | inactive: -0.12 | inactive: -0.015 | active: 0.71 | inactive: 0.141 | inactive: 0.264 | inactive: -0.081 | inactive: -0.269 | inactive: -0.016 | active: 0.9 | inactive: 0.473 | inactive: 0.257
PAFAH2 (UniProt Q99487) | inactive: 0.026 | inactive: -0.019 | inactive: -0.003 | inactive: -0.027 | inactive: 0.034 | inactive: 0.164 | inactive: 0.121 | inactive: -0.003 | inactive: -0.159 | inactive: 0.167 | inactive: 0.017 | inactive: -0.015 | inactive: -0.003 | inactive: 0.021 | inactive: 0.019 | inactive: 0.03 | inactive: 0.029 | inactive: 0.068 | inactive: 0.239 | inactive: -0.056
PACS1 (UniProt Q6VY07) | inactive: 0.005 | inactive: -0.013 | inactive: -0.008 | inactive: 0.002 | inactive: -0.025 | inactive: 0.002 | inactive: 0.05 | inactive: 0.019 | inactive: -0.015 | inactive: -0.002 | inactive: -0.032 | inactive: -0.027 | inactive: 0.012 | inactive: 0.027 | inactive: 0.016 | inactive: -0.021 | inactive: 0.003 | inactive: 0.023 | inactive: 0.001 | inactive: 0.009
PAN2 isoform 2 (UniProt Q504Q3) | inactive: -0.044 | inactive: 0.045 | inactive: -0.085 | inactive: 0.003 | inactive: 0.041 | inactive: -0.053 | active: 0.27 | inactive: 0.09 | inactive: -0.108 | inactive: 0.084 | inactive: 0.072 | inactive: 0.013 | inactive: -0.012 | inactive: 0.046 | inactive: 0.079 | inactive: -0.036 | inactive: -0.049 | inactive: 0.056 | inactive: 0.02 | inactive: -0.028
OXR1 (UniProt Q8N573) | inactive: 0.018 | inactive: 0.016 | inactive: 0.006 | inactive: -0.016 | inactive: -0.014 | inactive: 0.115 | inactive: -0.049 | inactive: 0.068 | inactive: -0.014 | inactive: -0.005 | inactive: 0.006 | inactive: 0.03 | inactive: 0.051 | inactive: 0.027 | inactive: 0.01 | inactive: -0.051 | inactive: -0.02 | inactive: 0 | inactive: -0.003 | inactive: 0.013
ORC3 isoform 2 (UniProt Q9UBD5) | inactive: -0.014 | inactive: -0.011 | inactive: -0.119 | inactive: -0.008 | inactive: -0.025 | inactive: -0.097 | inactive: -0.024 | inactive: -0.009 | inactive: -0.046 | inactive: 0.001 | inactive: -0.014 | inactive: 0 | inactive: -0.084 | inactive: -0.014 | inactive: -0.012 | inactive: -0.038 | inactive: -0.014 | inactive: 0.099 | inactive: 0.027 | inactive: -0.079
PAPOLA (UniProt P51003) | inactive: -0.014 | inactive: -0.032 | inactive: 0.018 | inactive: -0.027 | inactive: -0.008 | inactive: -0.044 | inactive: 0.004 | inactive: 0.022 | inactive: -0.021 | inactive: -0.006 | inactive: -0.019 | inactive: -0.011 | inactive: -0.009 | inactive: -0.043 | inactive: 0.019 | inactive: 0.023 | inactive: 0.003 | inactive: -0.018 | inactive: 0.003 | inactive: -0.025
